According to PubChem BioAssay (NCATS):
This is one part of the list. Shown are side measurements of this screen, not its main read-out; they come without a call. Most of these compounds were active or inconclusive in the main read-out, so they are no random draw. Potencies come from curve fits of mixed quality, noted in brackets.

assay: qHTS Assay for Inhibitors of PDE-IV (AID 607); details: HEK293 ACTOne CNG channel cells, membrane potential fluorescence; measured here: parental cell counter-screen
Method in brief: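 Cell-based read-out of cAMP via a modified cyclic nucleotide-gated channel and membrane potential dye (535/590 nm) in HEK293 cells expressing PDE4 endogenously. Compounds tested up to 22.9 uM final; 100 uM RO 20-1724 reference.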

SMILES | AC50
COC(=O)[C@@]1(Cc2ccc(F)cc2)[C@H]2c3cc(C(=O)N(C)C)n(Cc4ccc(OC(F)(F)F)cc4)c3C[C@H]2CN1C(=O)c1ccccc1 | 2.51 µM [rising, single point]
CN(C/C=C\c1ccccc1)Cc1cccc2ccccc12 | 7.94 µM [rising, partial curve]
C1CCC(C(C[C@@H]2CCCCN2)C2CCCCC2)CC1 | 10 µM [rising, single point]
CCn1cc(C(=O)O)c(=O)c2ccc(Cc3ccccc3)nc21 | 5.01 µM [rising, partial curve, poor fit]
C[C@@]12C(=O)OC(=O)[C@@]1(C)[C@H]1CC[C@@H]2O1 | 15.8 µM [rising, partial curve, poor fit]
N#Cc1cccc(-c2cncnc2NCc2cccs2)c1 | 12.6 µM [rising, single point]
O=C(c1cnccn1)N1CCC2(CCCN(c3cccc(-c4ccccc4)c3)C2)CC1 | 15.8 µM [rising, single point]
COc1ccc(CNc2ncnc3ccc(-c4ccccc4CN(C)C)cc23)c(OC)c1 | 7.94 µM [rising, partial curve]
O=C1[C@@H]2[C@@H](C(=O)N1c1ccc(OCc3ccccc3)cc1)[C@@H]1c3ccccc3[C@@H]2[n+]2ccccc21 | 2.51 µM [rising, single point]
C=C(CC1([C@@H](NP(=O)(c2ccccc2)c2ccccc2)[C@H]2C[C@@H]2CCCC)CC1)c1ccccc1 | 0.0631 µM [rising, partial curve, poor fit]
COc1ccccc1-c1ccc2ncnc(NCc3ccccc3)c2c1 | 10 µM [rising, partial curve]
CCCCN1CCCC[C@H]1C(=O)Nc1c(C)cccc1C | 5.01 µM [rising, partial curve]
CCN(CC)CCOC(=O)[C@@H](c1ccccc1)C1CCCCC1 | 7.94 µM [rising, single point]
O=C(c1csnn1)N1CCC2(CCCN(c3cccc(-c4ccccc4)c3)C2)CC1 | 15.8 µM [rising, single point]
COC(=O)[C@@]1(Cc2ccc(OC)cc2)[C@H]2c3cc(C(=O)N4CCCC4)n(Cc4ccc(Cl)c(C(F)(F)F)c4)c3C[C@H]2CN1C(=O)c1ccccc1 | 12.6 µM [rising, single point]
COc1ccccc1CNc1ncncc1-c1ccccc1OC | 12.6 µM [rising, partial curve]
COc1ccccc1CNc1ncnc2ccc(-c3ccccc3CN(C)C)cc12 | 12.6 µM [rising, partial curve]
Cc1cc(C(=O)N[C@@H](c2ccccc2)[C@]2(C)C[C@H]2[C@@H](C)C(=O)Nc2ccc3ccccc3c2)no1 | 6.31 µM [rising, partial curve, poor fit]
COC(=O)[C@@]1(Cc2ccc(F)cc2)[C@H]2c3cc(C(=O)N4CCCC4)n(Cc4ccc(S(C)(=O)=O)cc4)c3C[C@H]2CN1C(=O)c1ccccc1 | 10 µM [rising, single point]
COC(=O)[C@@H](NC(=O)c1cc(-c2ccccc2)nc2ccccc12)c1ccccc1 | 15.8 µM [rising, partial curve, poor fit]
CC1=C(C(=O)OCc2ccccc2)C(c2ccc3ccccc3c2)NC(=O)N1CCCCCC(=O)O (configuration not stated) | 15.8 µM [rising, single point]
Cc1ccccc1-c1cncnc1NCc1cccs1 | 10 µM [rising, partial curve]
O=C(c1ccncc1)N1CCC[C@@]2(CCN(C(c3ccccc3)c3ccccc3)C2)C1 | 12.6 µM [rising, partial curve]
COc1ccc(CNc2ccnc(-c3ccc4c(c3)OCO4)n2)c(OC)c1 | 15.8 µM [rising, single point]
COCCNc1ncnc2ccc(-c3ccccc3C(F)(F)F)cc12 | 12.6 µM [rising, single point]
CCc1c2c(nc3c(C(C)C)cccc13)-c1cccc(=O)n1C2 | 10 µM [rising, single point]
C=C[C@@]1(C)CC(=O)[C@@]2(O)[C@@]3(C)[C@@H](O)CCC(C)(C)[C@@H]3[C@H](O)[C@H](OC(C)=O)[C@@]2(C)O1 | 0.631 µM [rising, full curve]

An excerpt of these results, as tab-separated lines:
SMILES	AC50
COC(=O)[C@@]1(Cc2ccc(OC)cc2)[C@H]2c3cc(C(=O)N4CCCC4)n(Cc4ccc(Cl)c(C(F)(F)F)c4)c3C[C@H]2CN1C(=O)c1ccccc1	12.6 µM [rising, single point]
COc1ccccc1CNc1ncncc1-c1ccccc1OC	12.6 µM [rising, partial curve]
COc1ccccc1CNc1ncnc2ccc(-c3ccccc3CN(C)C)cc12	12.6 µM [rising, partial curve]
Cc1cc(C(=O)N[C@@H](c2ccccc2)[C@]2(C)C[C@H]2[C@@H](C)C(=O)Nc2ccc3ccccc3c2)no1	6.31 µM [rising, partial curve, poor fit]
COC(=O)[C@@]1(Cc2ccc(F)cc2)[C@H]2c3cc(C(=O)N4CCCC4)n(Cc4ccc(S(C)(=O)=O)cc4)c3C[C@H]2CN1C(=O)c1ccccc1	10 µM [rising, single point]
COC(=O)[C@@H](NC(=O)c1cc(-c2ccccc2)nc2ccccc12)c1ccccc1	15.8 µM [rising, partial curve, poor fit]
